Experimental findings from patent US20220135670A1 are described below.

The experiment deals with recombinant soluble cynomolgus monkey LAG-3 (cynomolgus monkey). Briefly: SPR, recombinant soluble LAG-3.

Results are given in words; binding and its absence hold for the method and conditions named. Binding can be weak; no strength is given.

B1: anti-LAG-3 antibody agent TSR-033 (antibody, human IgG4 S228P, kappa, V domains shown)
VH: EVQLVQSGAEVKKPGATVKISCKASGFSIKDDYIHWVQQAPGKGLEWMGWIDAMNDDSQYSSKFQGRVTITVDTSTNTAYMKLSSLRSEDTAVYYCTYAFGGYWGQGTTVTVSS
VL: DIVMTQTPLSLSVTPGQPASISCRSSQSLVHSDSNTYLHWYLQKPGQSPQLLIYLVSNRFSGVPDRFSGSGSGTDFTLKISRVEAEDVGVYFCGQSTHVPYAFGGGTKVEIKR
modifications: N-glycosylation at N291 of the heavy chain
Turning to B1, the binding result was “binds”.
